This is one part of the list. The main result of the screen is listed elsewhere. These columns were measured beside it and carry no call. Compounds called inactive in the main read-out are mostly missing here. Words in brackets tell the shape of the fitted curve; partial curves, single points and poor fits give uncertain potencies.
Experiment: qHTS Assay for Lipid Storage Modulators in Drosophila S3 Cells;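 for cell number change: cells counted by Cell Tracker Red CMTPX staining in the red channel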
Settings: BODIPY lipid droplet fluorescence, 18-24 h; for cell number change: measured here: cell count max response, cells fed with added oleic acid
Summary of the method: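 Laser-scanning cytometry quantifies lipid droplet accumulation (500–530 nm total intensity; droplet/cell object ratio) in oleic acid-fed (400 uM added) Drosophila S3 cells treated with a concentration series. 20 uM Triacsin C defined 100% inhibition.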

[1] = measured here: cell number channel AC50, cells fed with added oleic acid
[2] = measured here: lipid fluorescence (Fed channel) AC50, cells fed with added oleic acid

Structure (SMILES) | cell number change [%] | AC50 [1] | AC50 [2]
Cc1ccc(-c2ccccc2)n1-c1ccc(C(=O)O)cc1 | 59.1 | 25.9 µM [rising, single point] | 4.61 µM [rising, full curve]
Cc1cc(C)cc(NC(=O)CC23CC4CC(C2)CC(n2nnc(C)n2)(C4)C3)c1 | 2.2 |  | 0.517 µM [falling, single point]
O=C(Cn1ccc([N+](=O)[O-])n1)Nc1nccs1 | -4.23 |  | 
COC(=O)c1ccc(NC(=O)c2ccc(F)cc2)o1 | 14.6 |  | 
CN(CC(=O)NCc1ccccn1)S(=O)(=O)c1ccc(F)cc1 | 0.164 |  | 0.291 µM [rising, full curve, poor fit]
CCCCn1c(N)c(N(CC(C)C)C(=O)C2CSC3(C)CCC(=O)N23)c(=O)[nH]c1=O (stereo not drawn) | 28 |  | 
O=c1c2cc(Cl)ccc2[nH]c(=S)n1Cc1cccs1 | 6.25 |  | 4.61 µM [rising, partial curve, poor fit]
O=C(CSc1nnc(NC(=O)c2cccc(F)c2)s1)NC1CC1 | 17.5 |  | 29.1 µM [rising, single point]
COCCCNC(=O)c1sc2ncnc(N3CCc4ccccc4C3)c2c1C | -39.9 | 13 µM [falling, partial curve, poor fit] | 13 µM [falling, partial curve, poor fit]
COc1ccc(CC(C)N2CCN(c3ccccc3)CC2)cc1OC (stereo not drawn) | 4.9 | 0.651 µM [falling, full curve] | 0.651 µM [falling, full curve]
O=C(Cc1ccc(Cl)cc1)Nc1cccc(S(=O)(=O)N2CCCCC2)c1 | -17.5 |  | 
Cc1ccc(C(=O)N2C(=S)C(c3ccc(F)cc3)=NC23CCN(C)CC3)cc1 | -59.3 | 29.1 µM [falling, single point] | 29.1 µM [falling, single point]
O=C(NCC1CCCO1)c1nnc(Cc2ccc(F)cc2)o1 (stereo not drawn) | -26.1 |  | 0.731 µM [falling, full curve, poor fit]
CCc1ccc2[nH]c(=O)c(C(c3nnnn3CCOC)N3CCN(c4ccccc4)CC3)cc2c1 (stereo not drawn) | -5.18 | 0.13 µM [falling, full curve, poor fit] | 
CCOC(=O)C1CCCN(C(=O)c2sc3nc(-c4ccccc4)cn3c2C)C1 (stereo not drawn) | -44.8 | 13 µM [falling, partial curve, poor fit] | 0.0731 µM [falling, full curve, poor fit]
Cc1ccc(N=c2c([N+](=O)[O-])nn(-c3ccccc3)n2O)c(C)c1 | -24.8 |  | 2.31 µM [rising, partial curve]
Cc1cc(C(C)(C)C)ccc1OCC(=O)N/N=C\c1c(C)n(C)n(-c2ccccc2)c1=O | 33.3 |  | 
Cc1cc(C)c2cc(CN(CCCO)S(=O)(=O)c3ccccc3F)c(=O)[nH]c2c1 | -3.75 |  | 
C=CCn1c(SCC(=O)Nc2ccc(C(=O)OC(C)C)cc2)nnc1-c1cccs1 | 9.87 |  | 3.66 µM [rising, partial curve]
Cn1nc(C(F)(F)F)cc1-c1ccc(/C=C(\C#N)C(=O)c2ccccc2)s1 |  | 0.0731 µM [falling, full curve, poor fit] | 0.0651 µM [falling, full curve, poor fit]
CCOC(=O)c1csc(NC(=O)CSc2nnnn2-c2cccc(OC)c2)n1 | -3.02 |  | 0.231 µM [rising, full curve, poor fit]

No new results follow: 2 of the compounds above.
Structure (SMILES) | cell number change [%] | AC50 [1] | AC50 [2]
CCOC(=O)C1CCCN(C(=O)c2sc3nc(-c4ccccc4)cn3c2C)C1 (stereo not drawn) | -44.8 | 13 µM [falling, partial curve, poor fit] | 0.0731 µM [falling, full curve, poor fit]
Cc1ccc(N=c2c([N+](=O)[O-])nn(-c3ccccc3)n2O)c(C)c1 | -24.8 |  | 2.31 µM [rising, partial curve]

Additional entries.

Structure (SMILES) | cell number change [%] | AC50 [1] | AC50 [2]
O=C(CS(=O)(=O)Cc1ccccc1)NCCc1ccc(F)cc1 | 13 |  | 
CC(=O)Cc1ccccc1OC(=O)c1ccco1 | 1.55 |  | 3.26 µM [falling, full curve]
COc1ccc(CN2C(=O)CNC2=S)cc1 | 19.6 |  | 
CCCCCCCCCCCCCCCC[n+]1cccc(C(=O)N(CC)CC)c1 | -81 | 18.4 µM [falling, partial curve] | 14.6 µM [falling, partial curve, poor fit]
CC1(C(=O)CSc2ncn[nH]2)CCC(=O)O1 (stereo not drawn) | -56.9 | 7.31 µM [falling, partial curve] | 1.16 µM [falling, full curve]
CCOCCOc1cccc(C(=O)NC(c2ccccc2)c2ccccc2)c1 | -2.2 |  | 14.6 µM [falling, single point]
COc1ccc(-c2noc(CSc3nc(N)c(-c4ccccc4)c(=O)[nH]3)n2)cc1 |  | 6.51 µM [falling, single point] | 0.146 µM [falling, full curve, poor fit]
O=C(O)/C(=C\c1ccc(F)cc1)c1ccc(-c2ccccc2)cc1 | 11.1 |  | 
Nc1nnc(CCC2CCCCC2)s1 | 8.57 |  | 0.0058 µM [falling, full curve, poor fit]
C(=C\c1ccccc1)/CSc1nnc(-c2ccccn2)n1Cc1ccco1 |  |  | 2.06 µM [rising, partial curve]
Nc1ncc(Br)cc1S(=O)(=O)NCCC(=O)N1CCN(c2ccccc2)CC1 | 43.9 | 13 µM [rising, partial curve] | 9.2 µM [rising, partial curve]
Nc1nc(-c2ccccc2)cc(N2CCCCC2)n1 | 22.3 | 3.66 µM [rising, full curve, poor fit] | 
Cc1c(C(=O)N2CCC(C)CC2)sc2ncnc(N3CCN(c4ccccc4)CC3)c12 |  | 1.16 µM [rising, partial curve] | 1.46 µM [rising, partial curve]
Cc1ccc2oc(=O)c3cc(C(=O)NCCCN4C(C)CCCC4C)sc3c2c1 (stereo not drawn) | 6.13 |  | 29.1 µM [rising, single point]
CC1(C)CC(=O)C/C(=N/NC(=O)c2ccc(-c3ccccc3)cc2)C1 | 34.8 | 0.13 µM [rising, full curve, poor fit] | 
O=S(=O)(Nc1ccon1)c1ccc(F)c(F)c1 | 0.348 |  | 0.461 µM [falling, full curve, poor fit]
Cc1ccc(CN2CCN(Cc3cnn(-c4ccc(F)cc4)c3)CC2CCO)o1 (stereo not drawn) | 30.1 |  | 
O=C(Nc1ccsc1C(=O)N1CCCC1)c1ccccc1 | 57.1 | 29.1 µM [rising, single point] | 18.4 µM [rising, single point]
COc1ccc(C(=O)CCN2CCN(c3ccc(OC)cc3)CC2)cc1 | 3.42 |  | 
COc1ccc(N2CCN(S(=O)(=O)c3c(C)n(C)c(=O)n(C)c3=O)CC2)cc1 | 1.17 |  | 
CCOc1ccc(NC(=S)N/N=C(\C)Cc2ccc(OC)cc2)cc1 | 4.16 |  | 

Exported as labelled records: entries from further up
CCOCCOc1cccc(C(=O)NC(c2ccccc2)c2ccccc2)c1
  cell number change [%]: -2.2
  AC50 [2]: 14.6 µM [falling, single point]
COc1ccc(-c2noc(CSc3nc(N)c(-c4ccccc4)c(=O)[nH]3)n2)cc1
  AC50 [1]: 6.51 µM [falling, single point]
  AC50 [2]: 0.146 µM [falling, full curve, poor fit]

The listing continues.

Structure (SMILES) | cell number change [%] | AC50 [1] | AC50 [2]
CC(C)(O)C#Cc1ccc(C(=O)N2CCC(C(N)=O)(N3CCCCC3)CC2)o1 | -1.66 |  | 13 µM [rising, partial curve]
CC(OC(=O)c1oc2ccccc2c1COc1ccccc1)C(=O)NC(N)=O (stereo not drawn) | -12.1 |  | 0.146 µM [rising, full curve, poor fit]
O=C(Nc1nn(Cc2ccc(Cl)cc2)cc1Br)c1ccc(COc2ccccc2Cl)o1 | 27.5 |  | 29.1 µM [rising, single point]
COCCn1c(=S)[nH]c2cc(C(=O)N3CCN(Cc4ccc5c(c4)OCO5)CC3)ccc2c1=O | -19.1 |  | 2.31 µM [falling, partial curve, poor fit]
COc1ccc(N=C2C(=O)Nc3ccccc32)cc1 | 1.21 |  | 6.51 µM [rising, single point]
CC(C)(C)OC(=O)NCCCCCc1nnc(SCc2ccccc2F)o1 | 3.15 |  | 2.31 µM [rising, partial curve, poor fit]
O=C(O)CC(NC(=O)OCc1ccccc1)c1ccccc1 (stereo not drawn) | 5.04 |  | 
Cc1ccc(OCCn2cnc(Cl)c2Cl)cc1 | 9.16 |  | 0.00411 µM [rising, full curve, poor fit]
CCN1CCCC1CNC(=O)c1ccc(CS(=O)(=O)c2ccccc2C)o1 (stereo not drawn) | -5.03 |  | 
CCN(c1ccccc1)S(=O)(=O)c1ccc(OC)c(NC(=O)CNC)c1 | 9.23 | 0.13 µM [falling, full curve, poor fit] | 
CCOc1ccccc1CN1CCCC(CNS(=O)(=O)c2ccc(OC)cc2)C1 (stereo not drawn) | 38.8 | 29.1 µM [rising, single point] | 29.1 µM [rising, single point]
COc1ccc(S(=O)(=O)N2CCCCC2)cc1NC(=O)c1cccnc1SC | -29.9 |  | 10.3 µM [falling, single point]
Cc1ccc(SCC(=O)NC2CCS(=O)(=O)C2)cc1C (stereo not drawn) | 2.9 |  | 0.13 µM [falling, full curve, poor fit]
FC(F)(F)c1cc(Sc2ccccc2)nc(-c2ccccn2)n1 | -28.1 |  | 0.00517 µM [falling, full curve, poor fit]
CCOc1ccc(-n2nc3ccc(N)cc3n2)cc1 | -1.75 |  | 7.31 µM [falling, full curve, poor fit]
C=CCOc1cccc(C(=O)/C=C2/C(=O)Nc3ccccc32)c1 | -67.7 | 29.1 µM [falling, single point] | 29.1 µM [falling, single point]
O=C(CSc1nnc(CNC(=O)c2ccccc2)o1)NCC1CCCO1 (stereo not drawn) | -10.5 |  | 18.4 µM [falling, single point]
CC(C)CC(=O)NC(=S)Nc1ccc(N2CCOCC2)c(Cl)c1 | 1.17 |  | 
O=C1CCC(C(=O)N(CCO)Cc2ccccc2)CN1CC1CCCCC1 (stereo not drawn) | 18.5 |  | 3.26 µM [falling, single point]
COc1ccc(/C(O)=C2/C(=O)C(=O)N(CCN3CCNCC3)C2c2cccc([N+](=O)[O-])c2)cc1 (stereo not drawn) | -2.38 |  | 0.58 µM [falling, single point]

Reference: PubChem BioAssay AID2685 (National Center for Advancing Translational Sciences (NCATS), 2010)
